Source: paper PMC6761256
No constants are given. Whether binding was seen depends on the method and setting. In cells and extracts the contact can be indirect. Binding calls can cover weak binding; strength is not graded here.

Columns and labels:
[1] = target: T1, RIP3 (rat (endogenous in brain tissue)) (UniProt Q9Z2P5); assay: co-IP; endogenous proteins in lysates of rat brain tissue 6 h after CCI (weak RIPA lysis buffer, pre-cleared with protein A/G agarose); 500 ul extract with 2 ug primary antibody (RIP3 or MLKL precipitated) overnight at 4°C, protein A/G agarose 4 h at 4°C, immunoblot; also in rats given AAV-shA20 or AAV-shCtrl, Nec-1 or melatonin
T1 sequence: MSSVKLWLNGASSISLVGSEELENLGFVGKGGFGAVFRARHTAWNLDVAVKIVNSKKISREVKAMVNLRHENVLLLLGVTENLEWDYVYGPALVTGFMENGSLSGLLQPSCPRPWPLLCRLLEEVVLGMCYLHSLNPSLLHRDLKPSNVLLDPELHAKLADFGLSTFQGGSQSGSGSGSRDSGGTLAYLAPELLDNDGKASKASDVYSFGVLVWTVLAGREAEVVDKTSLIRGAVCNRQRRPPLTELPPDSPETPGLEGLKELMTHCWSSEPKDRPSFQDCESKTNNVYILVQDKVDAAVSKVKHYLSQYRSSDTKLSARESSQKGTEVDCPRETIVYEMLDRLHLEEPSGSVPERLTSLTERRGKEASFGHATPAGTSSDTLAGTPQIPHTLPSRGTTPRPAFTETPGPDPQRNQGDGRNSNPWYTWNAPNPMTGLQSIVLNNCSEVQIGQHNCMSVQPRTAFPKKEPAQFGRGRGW

[2] = target: T2, mixed lineage kinase domain-like protein (rat (endogenous in brain tissue)) (UniProt D3ZKP6); assay: as above
T2 sequence: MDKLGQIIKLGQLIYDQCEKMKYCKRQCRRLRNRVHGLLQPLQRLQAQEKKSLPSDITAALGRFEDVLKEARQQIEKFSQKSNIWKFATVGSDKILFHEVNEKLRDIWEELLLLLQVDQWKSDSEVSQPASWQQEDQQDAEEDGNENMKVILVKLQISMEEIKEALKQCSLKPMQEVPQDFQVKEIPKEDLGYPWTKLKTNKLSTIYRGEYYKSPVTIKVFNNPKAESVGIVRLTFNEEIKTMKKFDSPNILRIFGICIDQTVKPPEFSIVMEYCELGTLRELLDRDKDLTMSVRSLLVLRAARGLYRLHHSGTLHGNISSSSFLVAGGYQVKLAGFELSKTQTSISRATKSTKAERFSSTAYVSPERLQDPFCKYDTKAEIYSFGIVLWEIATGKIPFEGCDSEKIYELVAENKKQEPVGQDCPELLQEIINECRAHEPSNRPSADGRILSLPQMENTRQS

## receptor-interacting protein 1 (rat (endogenous in brain tissue))
[1]
  binding: binds
[2]
  binding: binds
